Reference: article PMC9728511 (Chemical Science, 2022)

Experiment: peptide synthesis
Details: late stage modification step, HPLC vs internal standard S4, 300 nm

## Ac-MGDFQ NH2
  step yield: 51%
